Measured values published in PubChem BioAssay AID1487 (National Center for Advancing Translational Sciences (NCATS), 2009).
Values joined by “and” are separate entries in the source; they are usually repeats but may differ in a detail not shown here. Equal values may be shown once. Some of the results follow. Further columns of the screen follow, without active or inactive calls. Compounds called inactive in the main read-out are mostly missing here. The note in brackets gives the kind of curve behind each potency; many fits are weak.

Experiment: qHTS Assay for Modulators of Lamin A Splicing
Conditions: HeLa LMNA splicing GFP/RFP minigene ratio, 48 h
Method in brief: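 S3 HeLa cells stably expressing lamin A-EGFP splicing minigene plus DsRed2, 600 cells/well, 48 h compound exposure at 37C. Laser-scanning cytometry; analysed as GFP (500-530 nm)/RFP (575-640 nm) total intensity ratio; 0.5% DMSO vehicle.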

[1] = measured here: GFP splicing reporter channel
[2] = measured here: RFP viability control channel

With NC(=O)C1(N2CCCCC2)CCN(CC(=O)Nc2ccc(Oc3ccccc3)cc2)CC1 as the compound, how does the AC50 [1] read?
The AC50 was 11.2 µM [rising, partial curve, poor fit].

What about the AC50 [2] of the same compound?
The AC50 was 22.4 µM [rising, single point].

With CS(=O)(=O)N(CCc1ccccc1)CC(=O)Nc1ccc2c(c1)OCO2 as the compound, how does the AC50 [1] read?
The AC50 was 10 µM [rising, partial curve].

And the AC50 [2]?
Its AC50 is 20 µM [rising, partial curve].

For N#Cc1nc(-c2ccc(COc3ccccc3)o2)oc1N1CCCCC1, which AC50 [1] is on record?
The AC50 was 11.2 µM [rising, partial curve, poor fit].

For O=C(/C(=C/c1ccc(Cl)cc1)c1nc2ccccc2[nH]1)c1cccs1, which AC50 [2] is on record?
Its AC50 is 10 µM [rising, partial curve].

With O=C(Nc1cccnc1)C1CCCN(S(=O)(=O)c2cccc3nsnc23)C1 (stereo unspecified) as the compound, how does the AC50 [2] read?
The AC50 was 25.1 µM [rising, single point].

Which results are given for Cc1cc(C)n2[nH]c(=O)c(N=Nc3ccc(S(N)(=O)=O)cc3)c2n1?
AC50 [1]: 35.5 µM [rising, single point]; AC50 [2]: 0.355 µM [rising, partial curve, poor fit]

Which AC50 [2] does the source give for CC(C(=O)OCC(=O)Nc1cccc(S(=O)(=O)N2CCOCC2)c1)N1C(=O)c2ccccc2C1=O (stereo unspecified) here?
The AC50 was 1.12 µM [falling, partial curve, poor fit].

With CCn1c(C)nc2cc(C(=O)N/N=C(\C)c3ccccc3O)ccc21 as the compound, how does the AC50 [2] read?
Its AC50 is 3.98 µM [rising, partial curve, poor fit].

Which AC50 [2] does the source give for N=c1c2c(n(Cc3ccc(Cl)c(Cl)c3)c3c1CCC3)CCCC2 here?
Its AC50 is 25.1 µM [rising, single point].

Which AC50 [1] does the source give for CCn1c(-c2cc(-c3ccc(C)c(C)c3)nc3ccccc23)n[nH]c1=S here?
The AC50 was 0.0708 µM [falling, full curve, poor fit].

What about the AC50 [2] of the same compound?
Its AC50 is 25.1 µM [falling, partial curve, poor fit].

For CC(C)Sc1snnc1-c1ccccc1, which AC50 [2] is on record?
The AC50 was 4.47 µM [falling, full curve].

With Cc1ccc(CNC(=O)Cc2ccc(-n3cccc3)cc2)cc1 as the compound, how does the AC50 [2] read?
Its AC50 is 5.01 µM [rising, full curve].

What does the source list for COc1ccc(C(=O)CSc2n[nH]c(-c3ccncc3)n2)cc1[N+](=O)[O-]?
AC50 [1]: 17.8 µM [rising, partial curve, poor fit]; AC50 [2]: 0.794 µM [rising, full curve, poor fit]

Which AC50 [1] does the source give for Cc1ccc(SCCNC(=S)Nc2ccc(C)cc2C)cc1 here?
Its AC50 is 35.5 µM [rising, single point].

For C/C1=C2N=C(/C=C3N=C(/C(C)=C4\[N-]C(C)(C5N=C1C(C)(CCC(=O)NCC(C)OP(=O)([O-])O[C@H]1C(O)C(n6cnc7cc(C)c(C)cc76)O[C@@H]1CO)C5CC(N)=O)C(C)(CC(N)=O)C4CCC(N)=O)C(C)(CC(N)=O)C\3CCC(N)=O)C(C)(C)C/2CCC(N)=O.[CH2-]C1OC(n2cnc3c(N)ncnc32)C(O)C1O.[Co] (stereo partly specified), which AC50 [1] is on record?
Its AC50 is 14.1 µM [rising, single point].

And the AC50 [2]?
The AC50 was 0.0355 µM [rising, full curve].

What does the source list for COc1ccccc1NC(=O)Cn1cc(C(=O)c2ccco2)c2ccccc21?
AC50 [1]: 11.2 µM [falling, partial curve, poor fit]; AC50 [2]: 17.8 µM [falling, single point]

With O=c1cnn(-c2ccc(Cl)cc2Cl)c(-c2ccccc2)c1 as the compound, how does the AC50 [2] read?
The AC50 was 25.1 µM [rising, single point].

For O=C(CC1NCCNC1=O)Nc1cccc([N+](=O)[O-])c1 (stereo unspecified), which AC50 [1] is on record?
The AC50 was 1.26 µM [falling, partial curve].

What about the AC50 [2] of the same compound?
The AC50 was 1.41 µM [falling, partial curve, poor fit].

For CCc1ccccc1Nc1nc(N)nc(COC(=O)c2cccn2C)n1, which AC50 [2] is on record?
The AC50 was 11.2 µM [rising, partial curve].

Which results are given for C/C(=N\NC(=S)NCc1ccccc1)c1ccc(Cl)cc1?
AC50 [1]: 35.5 µM [rising, single point]; AC50 [2]: 35.5 µM [rising, single point]

Which AC50 [1] does the source give for CSc1nc2ccc(NC(=O)C3CC(=O)N(Cc4ccccc4)C3)cc2s1 (stereo unspecified) here?
Its AC50 is 0.0708 µM [falling, partial curve].

Which AC50 [2] does the source give for Cc1ccc(S(=O)(=O)NCC(=O)N/N=C/c2ccc(Cl)cc2)cc1 here?
The AC50 was 35.5 µM [rising, partial curve].

Which AC50 [1] does the source give for CCc1c(O)nc(SCC(=O)Nc2ccc(C)cc2)n(C2CCCCC2)c1=O here?
Its AC50 is 17.8 µM [rising, single point].

What about the AC50 [2] of the same compound?
The AC50 was 25.1 µM [rising, single point].

For COc1ccc(N(CC2CO2)S(=O)(=O)c2ccccc2)cc1 (stereo unspecified), which AC50 [2] is on record?
The AC50 was 14.1 µM [rising, single point].

For CC(=O)c1c(C(C)=O)c(C)n(-c2nc(-c3ccc(Br)cc3)c(C)s2)c1C, which AC50 [1] is on record?
Its AC50 is 35.5 µM [rising, single point].

With CC(C)(C)NC[C@H](O)c1cc(O)cc(O)c1 as the compound, how does the AC50 [2] read?
Its AC50 is 7.94 µM [rising, single point].

With Cc1ccc(N2C(=O)C3C4C=CC(CNC(=S)Nc5ccc(Cl)cc5)(O4)C3C2=O)cc1 (stereo unspecified) as the compound, how does the AC50 [2] read?
The AC50 was 22.4 µM [rising, single point].

Which results are given for Cc1ccc(Cl)c2sc(N3CCN(C(=O)C4CC4)CC3)nc12?
AC50 [1]: 0.447 µM [falling, single point]; AC50 [2]: 0.178 µM [falling, partial curve, poor fit]

With COc1ccccc1C(=O)N1CCN(Cc2ccc3c(c2)OCO3)CC1 as the compound, how does the AC50 [2] read?
Its AC50 is 15.8 µM [rising, single point].

With COC(=O)c1c(NC(=O)c2ccc(S(=O)(=O)N3CCCC(C)C3)cc2)sc2c1CCN(C(C)C)C2 (stereo unspecified) as the compound, how does the AC50 [2] read?
The AC50 was 12.6 µM [falling, partial curve, poor fit].

Which AC50 [1] does the source give for CC(C)N(C(=O)COC(=O)c1cccc(C(=O)OCC(=O)N(C(C)C)C(C)C)n1)C(C)C here?
The AC50 was 11.2 µM [falling, partial curve, poor fit].

Which AC50 [1] does the source give for Cc1cccc(Nc2nc(-c3ccccc3)c(C(=O)Nc3cccnc3)s2)c1 here?
The AC50 was 35.5 µM [falling, single point].

What about the AC50 [2] of the same compound?
Its AC50 is 35.5 µM [falling, single point].

With CCn1nc(C)c(NC(=O)c2cnn3c(C(F)F)cc(-c4ccccc4)nc23)c1C as the compound, how does the AC50 [1] read?
The AC50 was 1.26 µM [rising, partial curve].

For O=c1c2ccccc2nnn1Cc1cccc2ccccc12, which AC50 [1] is on record?
Its AC50 is 0.0141 µM [rising, full curve, poor fit].

With O=C(Nc1nc(-c2cc(Cl)sc2Cl)cs1)c1ccccc1 as the compound, how does the AC50 [2] read?
The AC50 was 25.1 µM [rising, single point].

With CCCCCCOC(=O)C[N+](C)(C)CCOC1CC2CCC1(C)C2(C)C (stereo unspecified) as the compound, how does the AC50 [2] read?
Its AC50 is 12.6 µM [rising, partial curve, poor fit].

With Nc1ccc(NC(=O)c2cccs2)cc1 as the compound, how does the AC50 [2] read?
Its AC50 is 0.02 µM [falling, full curve, poor fit].

Which AC50 [2] does the source give for Cc1cc(C(=O)OC(C(=O)Nc2ccc(C)c(Cl)c2)c2ccccc2)c(C)o1 (stereo unspecified) here?
The AC50 was 35.5 µM [rising, single point].

For COc1ccc(NC(=O)c2cccc(Oc3ccc([N+](=O)[O-])cc3Cl)c2)cc1, which AC50 [2] is on record?
Its AC50 is 20 µM [rising, single point].

For CCS(=O)(=O)Nc1ccc(-c2ccc(NS(=O)(=O)CC)c(OC)c2)cc1OC, which AC50 [2] is on record?
The AC50 was 10 µM [rising, partial curve].

Which results are given for Cc1cc([N+](=O)[O-])nn1CC(=O)Nc1ccc(Cl)cn1?
AC50 [1]: 5.62 µM [rising, partial curve, poor fit]; AC50 [2]: 0.316 µM [rising, full curve]

For O=C(COc1ccc(Cl)cc1Cl)Nc1ccc(S(=O)(=O)NC2=NCCCCC2)cc1, which AC50 [2] is on record?
The AC50 was 35.5 µM [rising, single point].

With COc1ccc(COc2cc(-c3cccc(OC)c3)nc3ccc(NC(=O)c4cccnc4)cc23)cc1 as the compound, how does the AC50 [2] read?
The AC50 was 15.8 µM [rising, single point].

For N#Cc1c(NC(=O)c2ccncc2)sc2c1CCC2, which AC50 [2] is on record?
The AC50 was 0.0708 µM [rising, partial curve].

With Cc1ccc(C)c(N2CCN(c3ncnc4c3nc3n4CCCCC3)CC2)c1 as the compound, how does the AC50 [1] read?
The AC50 was 35.5 µM [falling, single point].

What about the AC50 [2] of the same compound?
The AC50 was 35.5 µM [falling, single point].

For C=CCO/N=C(\C)c1c(O)c(C)c(-c2ccccc2)n(-c2ccccc2)c1=O, which AC50 [2] is on record?
Its AC50 is 14.1 µM [rising, partial curve, poor fit].

Which AC50 [1] does the source give for O=c1[nH]c2ccccc2c2ccccc12 here?
The AC50 was 20 µM [rising, partial curve].

What about the AC50 [2] of the same compound?
The AC50 was 6.31 µM [rising, single point].

With Cc1snc(S(=O)(=O)Cc2ccccc2Cl)c1C#N as the compound, how does the AC50 [2] read?
Its AC50 is 0.00562 µM [falling, full curve, poor fit].

With COc1cc2c(cc1OC)C(c1ccccc1)N(C(=O)CSCC(=O)O)CC2 (stereo unspecified) as the compound, how does the AC50 [2] read?
The AC50 was 31.6 µM [rising, single point].

For COc1ccc(NC(=O)CC(c2ccc(F)cc2)c2ccc(OC)cc2)cc1 (stereo unspecified), which AC50 [2] is on record?
The AC50 was 17.8 µM [rising, partial curve, poor fit].

Which AC50 [2] does the source give for CCOc1nc2ccccc2nc1NS(=O)(=O)c1ccccc1 here?
Its AC50 is 0.0316 µM [rising, full curve, poor fit].

Which AC50 [1] does the source give for CC(=O)N1N=C(c2ccc3ccccc3c2)OC12CCCC2 here?
The AC50 was 25.1 µM [falling, single point].

And the AC50 [2]?
Its AC50 is 35.5 µM [falling, single point].

What does the source list for C#CCN(C)Cc1ccccc1?
AC50 [1]: 2.82 nM [falling, full curve, poor fit] and 3.16 µM [falling, full curve]; AC50 [2]: 8.91 µM [falling, single point] and 2.82 µM [falling, full curve]

With O=C(Cn1c(-c2cscn2)nc2ccccc21)Nc1ccc2ccccc2c1 as the compound, how does the AC50 [1] read?
The AC50 was 14.1 µM [falling, single point].
